Data taken from article PMC11148069.
These are yes or no findings as the source states them, for the method shown. Binding seen in cells or lysates may run through a third protein. Some results given as binding are weak or reduced against the parent protein; the word gives no strength.

Sequences of proteins named here, by UniProt entry; tags and fusion partners are left off.
UniProt Q92621: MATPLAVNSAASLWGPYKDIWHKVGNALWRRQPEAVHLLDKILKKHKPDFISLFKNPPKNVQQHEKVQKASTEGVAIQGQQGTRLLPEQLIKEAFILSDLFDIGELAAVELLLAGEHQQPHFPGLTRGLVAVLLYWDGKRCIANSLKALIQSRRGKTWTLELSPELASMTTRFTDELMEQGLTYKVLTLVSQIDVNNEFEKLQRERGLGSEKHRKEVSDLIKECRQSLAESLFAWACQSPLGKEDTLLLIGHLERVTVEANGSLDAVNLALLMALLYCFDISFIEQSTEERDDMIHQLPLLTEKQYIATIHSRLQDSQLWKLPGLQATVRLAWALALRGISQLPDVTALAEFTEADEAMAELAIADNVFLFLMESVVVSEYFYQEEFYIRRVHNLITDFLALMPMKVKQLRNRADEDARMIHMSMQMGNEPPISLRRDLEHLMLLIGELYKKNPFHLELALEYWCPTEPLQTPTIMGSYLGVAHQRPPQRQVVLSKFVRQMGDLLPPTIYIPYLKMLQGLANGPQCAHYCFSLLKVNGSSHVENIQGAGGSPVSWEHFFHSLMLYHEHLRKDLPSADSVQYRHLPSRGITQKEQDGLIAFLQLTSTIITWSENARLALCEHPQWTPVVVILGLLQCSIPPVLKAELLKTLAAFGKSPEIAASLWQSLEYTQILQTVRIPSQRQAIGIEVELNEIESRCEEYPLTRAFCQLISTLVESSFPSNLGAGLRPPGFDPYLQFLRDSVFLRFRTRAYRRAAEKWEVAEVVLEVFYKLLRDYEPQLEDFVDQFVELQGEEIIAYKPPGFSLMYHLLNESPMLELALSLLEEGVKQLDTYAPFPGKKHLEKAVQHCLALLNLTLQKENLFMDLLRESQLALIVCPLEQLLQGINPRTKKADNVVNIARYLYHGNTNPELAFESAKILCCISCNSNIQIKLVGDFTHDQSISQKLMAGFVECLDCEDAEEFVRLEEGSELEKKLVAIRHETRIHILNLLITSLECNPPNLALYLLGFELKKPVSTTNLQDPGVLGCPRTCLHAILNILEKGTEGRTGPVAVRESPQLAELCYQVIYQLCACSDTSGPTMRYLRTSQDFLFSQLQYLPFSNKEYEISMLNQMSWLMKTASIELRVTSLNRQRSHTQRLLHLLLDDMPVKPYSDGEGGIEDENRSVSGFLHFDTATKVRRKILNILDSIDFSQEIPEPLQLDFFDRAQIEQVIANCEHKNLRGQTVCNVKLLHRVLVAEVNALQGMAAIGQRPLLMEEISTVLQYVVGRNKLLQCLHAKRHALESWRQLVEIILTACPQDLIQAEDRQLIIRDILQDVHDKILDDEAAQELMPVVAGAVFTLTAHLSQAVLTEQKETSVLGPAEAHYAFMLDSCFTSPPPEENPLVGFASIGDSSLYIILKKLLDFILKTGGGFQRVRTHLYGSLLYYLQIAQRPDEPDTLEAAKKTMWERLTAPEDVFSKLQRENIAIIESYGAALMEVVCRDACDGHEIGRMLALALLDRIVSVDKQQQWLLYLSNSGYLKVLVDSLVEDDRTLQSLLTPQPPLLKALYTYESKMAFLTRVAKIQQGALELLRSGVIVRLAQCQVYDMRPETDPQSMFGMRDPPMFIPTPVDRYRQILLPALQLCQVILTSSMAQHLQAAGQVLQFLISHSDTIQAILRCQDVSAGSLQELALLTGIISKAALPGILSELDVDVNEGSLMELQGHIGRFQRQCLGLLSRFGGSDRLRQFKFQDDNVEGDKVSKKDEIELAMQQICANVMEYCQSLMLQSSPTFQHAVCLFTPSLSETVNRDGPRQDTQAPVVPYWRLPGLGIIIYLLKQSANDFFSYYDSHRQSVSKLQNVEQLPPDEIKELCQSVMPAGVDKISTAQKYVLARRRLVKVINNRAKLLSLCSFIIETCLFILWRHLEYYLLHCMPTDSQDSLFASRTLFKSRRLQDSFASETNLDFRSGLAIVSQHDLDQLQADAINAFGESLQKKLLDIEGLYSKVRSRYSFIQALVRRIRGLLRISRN

Molecular target: T1, human Nup93, endogenous (human (endogenous in HeLa)) (UniProt Q8N1F7)
T1 sequence: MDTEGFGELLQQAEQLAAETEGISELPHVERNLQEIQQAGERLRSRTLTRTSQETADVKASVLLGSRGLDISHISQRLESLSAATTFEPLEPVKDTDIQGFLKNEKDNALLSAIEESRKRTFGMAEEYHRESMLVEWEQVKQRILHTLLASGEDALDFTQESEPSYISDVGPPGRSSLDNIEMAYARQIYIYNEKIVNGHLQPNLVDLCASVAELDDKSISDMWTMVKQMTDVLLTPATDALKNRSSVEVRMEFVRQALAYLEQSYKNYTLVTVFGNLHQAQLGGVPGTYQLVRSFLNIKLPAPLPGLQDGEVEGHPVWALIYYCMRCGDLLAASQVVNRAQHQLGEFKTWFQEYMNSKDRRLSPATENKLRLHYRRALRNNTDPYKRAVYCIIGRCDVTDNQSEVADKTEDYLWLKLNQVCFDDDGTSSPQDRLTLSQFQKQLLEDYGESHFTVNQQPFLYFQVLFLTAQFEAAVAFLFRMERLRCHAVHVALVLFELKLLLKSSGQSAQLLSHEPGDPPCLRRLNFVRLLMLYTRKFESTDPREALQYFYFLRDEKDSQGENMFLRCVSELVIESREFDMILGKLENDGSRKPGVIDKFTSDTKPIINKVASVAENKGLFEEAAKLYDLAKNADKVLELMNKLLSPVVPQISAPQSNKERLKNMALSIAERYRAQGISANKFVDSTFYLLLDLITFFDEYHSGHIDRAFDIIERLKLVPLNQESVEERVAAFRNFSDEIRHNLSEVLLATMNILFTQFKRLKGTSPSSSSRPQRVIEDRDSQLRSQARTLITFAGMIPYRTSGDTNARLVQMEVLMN
Assay: pull-down; proteins co-purifying with the Nup that was captured by the immobilised nanobody from HeLa lysate or Xenopus egg extract; SDS-PAGE/Coomassie, identities confirmed by mass spectrometry

binding: binds
Substance: human Nup205, endogenous (from UniProt Q92621 1-2012)
